Source: patent US20220168392A1 (priority 2019, published 2022)

Test system: healthy men
Assay: Study NAP1001: single IV dose in healthy men (platelet counts, safety)
Format: in vivo, human
Settings: for dose required to achieve a 2-3-fold (2-3.5-fold) platelet elevation in humans, fold lower compared to mice: humans vs mice; for dose required to achieve a 2-3-fold (2-3.5-fold) platelet elevation in humans, fold lower compared to rats: humans vs rats
Procedure: In the FIH, single dose, Phase 1 clinical study NAP1001, 40 healthy men were enrolled, and 30 subjects received a single IV dose of RWJ-800088 as a 5-mg/mL solution in saline (dose range 0.375 to 3 μg/kg); 10 subjects received placebo. […] Thirty-three (83%) of 40 subjects reported at least 1 treatment-emergent adverse event throughout the study. Similar proportions of subjects reported treatment-emergent adverse events following administration of placebo (9 [90%] of 10 subjects) and RWJ-800088 (24 [80%] of 30 subjects). […] Mean platelet counts increased with increasing RWJ-800088 dose compared with placebo from Day 6 onwards, peaking at Days 10 to 12 before gradually returning to baseline by Day 21 (FIG. 19).
The ratio of the maximum platelet counts to the baseline platelet counts following single escalating doses of RWJ-800088 to mice, rats, dogs, rhesus monkeys and human healthy volunteers is shown in Table 5. The dose required to achieve a 2-3.5-fold elevation in humans is ˜100-fold lower compared to mice, ˜1,000-fold lower compared to rats and >10,000-fold lower compared to canines and NHPs. […] The species differences in potency has been described for other TPO mimetics in the literature and is attributed to differences in receptor affinity (Erickson-Miller C L, et al. Discovery and characterization of a selective, nonpeptidyl thrombopoietin receptor agonist. Exp. Hematol. 2005; 33:85-93). […] It is discovered that the dose of RWJ-800088 that produces a survival benefit and protects against vascular and organ injury is the dose that produces a 2-4 fold elevation of platelets (Table 6).

methoxypolyethyleneglycol20000-propionyl-L-Isoleucyl-L-Glutamyl-Glycyl-L-Prolyl-L-Threonyl-L-Leucyl-L-Arginyl-L-Glutaminyl-L-2-Naphthylalanyl-L-Leucyl-L-Alanyl-L-Alanyl-L-Arginyl-Sarcosyl-Ne-(methoxypolyethyleneglycol20000-propionyl-L-Isoleucyl-L-Glutamyl-Glycyl-L-Prolyl-L-Threonyl-L-Leucyl-L-Arginyl-L-Glutaminyl-L-2-Naphthylalanyl-L-Leucyl-L-Alanyl-L-Alanyl-L-Arginyl-Sarcosyl-)-Lysinamide [RWJ-800088]
dose required to achieve a 2-3-fold (2-3.5-fold) platelet elevation in humans, fold lower compared to canines and NHPs (humans vs canines and NHPs): > 10,000 fold | dose required to achieve a 2-3-fold (2-3.5-fold) platelet elevation in humans, fold lower compared to mice: ~100 fold | dose required to achieve a 2-3-fold (2-3.5-fold) platelet elevation in humans, fold lower compared to mice (listed as TPOm): about 100 fold | dose required to achieve a 2-3-fold (2-3.5-fold) platelet elevation in humans, fold lower compared to rats: ~1,000 fold | dose required to achieve a 2-3-fold (2-3.5-fold) platelet elevation in humans, fold lower compared to rats (listed as TPOm): about 1,000 fold
